Results as given in the supplement of paper PMC12823440, “Inhibitors supercharge kinase turnover through native proteolytic circuits” (Nature, 2025).
Counter-ions that a name gives are not always drawn. Some of the results follow. The calls rarely recur for the same compound in another form.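 Kinases were expressed as nanoluciferase fusions in K562 cells and luminescence was read every 4 h between 2 and 18 h as percent of control, DMSO set to 100% and a positive control to 0%. A time point counts as decreased when the signal drops significantly (2 sigma). The hit call is the authors' own, does not follow from the count of time points alone, and its rule is not shown.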

The chains behind the UniProt entries cited, without tags or fusion partners. Where a name states a change or a piece, a line headed by the entry shows the natural chain unless it says otherwise.
UniProt P43403: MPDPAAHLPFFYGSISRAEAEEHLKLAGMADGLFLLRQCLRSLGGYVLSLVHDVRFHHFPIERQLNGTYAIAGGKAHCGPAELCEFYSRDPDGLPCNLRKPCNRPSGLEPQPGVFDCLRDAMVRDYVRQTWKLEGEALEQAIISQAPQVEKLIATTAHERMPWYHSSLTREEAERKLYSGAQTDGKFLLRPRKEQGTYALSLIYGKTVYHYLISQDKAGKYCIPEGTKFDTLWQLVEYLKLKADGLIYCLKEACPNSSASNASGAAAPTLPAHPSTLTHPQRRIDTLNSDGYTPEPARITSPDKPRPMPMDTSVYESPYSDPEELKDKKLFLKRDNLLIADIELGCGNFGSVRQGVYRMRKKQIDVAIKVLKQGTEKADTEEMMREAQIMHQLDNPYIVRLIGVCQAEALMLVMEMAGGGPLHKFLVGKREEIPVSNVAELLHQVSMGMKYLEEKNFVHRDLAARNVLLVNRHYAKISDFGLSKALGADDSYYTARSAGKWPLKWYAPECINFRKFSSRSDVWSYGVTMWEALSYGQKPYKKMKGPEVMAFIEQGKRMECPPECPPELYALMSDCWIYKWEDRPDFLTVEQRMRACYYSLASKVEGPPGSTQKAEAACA

target: ZAP70 (UniProt P43403); test: kinase-Nluc reporter destabilization hit call (1 = scored as downregulated) (binary); higher = compound decreases kinase abundance; settings: 2.5 µM; K562; 2-18 h

kinase-Nluc reporter destabilization hit call, inactive:
C=CC(=O)Nc1cc(Nc2nccc(-c3cn(C)c4ccccc34)n2)c(OC)cc1N(C)CCN(C)C [Osimertinib mesylate] 0, Cc1cccc(-c2[nH]c(CNc3ccccc3F)nc2-c2ccc3ncnn3c2)n1 [Vactosertib (Hydrochloride)] 0, CC(C)Oc1ccc(-c2nn([C@@H](C)c3oc4ccc(F)cc4c(=O)c3-c3cccc(F)c3)c3ncnc(N)c23)cc1F [Umbralisib (hydrochloride)] 0, COc1ccc(S(=O)(=O)Nc2ccccc2CN(C)C/C=C/c2ccc(Cl)cc2)cc1 [KN-92 (phosphate)] 0, CN(C)C(=O)c1cc2cnc(Nc3ccc(N4CCNCC4)cn3)nc2n1C1CCCC1 [Ribociclib succinate hydrate] 0, C=CC(=O)Nc1cc2c(Nc3ccc(F)c(Cl)c3)ncnc2cc1C#CC(C)(C)N1CCN(C)CC1 0, Cc1cccc(/C=N/Nc2cc(N3CCOCC3)nc(OCCc3ccccn3)n2)c1 [Apilimod] 0, COc1cc2c(Oc3ccc4[nH]c(C)cc4c3F)ncnc2cc1OCCCN1CCCC1 [Cediranib] 0, Cc1cc(Nc2ncc(Cl)c(Nc3ccccc3S(=O)(=O)C(C)C)n2)c(OC(C)C)cc1C1CCNCC1 [Ceritinib dihydrochloride] 0, Nc1ncnc2c1c(-c1ccc(Oc3ccccc3)cc1)nn2[C@@H]1CCCNC1 0, CNC(=O)c1cc(Oc2ccc(NC(=O)Nc3ccc(Cl)c(C(F)(F)F)c3)c(F)c2)ccn1 [Regorafenib] 0

same assay, conditions: 10 µM; K562; 2-18 h

kinase-Nluc reporter destabilization hit call, inactive:
COc1ncc(F)cc1CNc1ccc(Cc2c[nH]c3ncc(C)cc23)c(F)n1 [PLX5622 (hemifumarate)] 0, C#Cc1cccc(Nc2ncnc3cc(OCCOC)c(OCCOC)cc23)c1 [Erlotinib] 0, Oc1cccc(-c2nc(N3CCOCC3)c3oc4ncccc4c3n2)c1 0, C#Cc1cccc(Nc2ncnc3cc(OCCOC)c(OCCO)cc23)c1 [Desmethyl Erlotinib (hydrochloride)] 0, C[C@@H](N)[C@H]1CC[C@H](C(=O)Nc2ccncc2)CC1 0, C#Cc1cccc(Nc2ncnc3cc4c(cc23)OCCOCCOCCO4)c1 [Icotinib] 0, C#Cc1cccc(Nc2ncnc3cc4c(cc23)OCCOCCOCCO4)c1 [Icotinib (Hydrochloride)] 0, O=C(c1ccc(F)c(F)c1Nc1ccc(I)cc1F)N1CC(O)([C@@H]2CCCCN2)C1 [Cobimetinib] 0, COc1cc2nccc(Nc3cc(OC)c(OC)c(OC)c3)c2cc1OC [GAK inhibitor 49 (hydrochloride)] 0, O=C(c1ccc(F)c(F)c1Nc1ccc(I)cc1F)N1CC(O)([C@@H]2CCCCN2)C1 [Cobimetinib (hemifumarate)] 0, C=CC(=O)Nc1cc(Nc2ncc(C(=O)OC(C)C)c(-c3cn(C)c4ccccc34)n2)c(OC)cc1N(C)CCN(C)C [Mobocertinib (succinate)] 0, CNC(=O)c1ccccc1Nc1cc(Nc2ccc(N3CCOCC3)cc2OC)ncc1C(F)(F)F [PND-1186 (hydrochloride)] 0, Cc1cccc(/C=N/Nc2cc(N3CCOCC3)nc(OCCc3ccccn3)n2)c1 [Apilimod (mesylate)] 0, O=C(O)c1ccc2c(c1)nc(Nc1cccc(Cl)c1)c1ccncc12 [Silmitasertib (sodium salt)] 0, C[C@H](CCC(=O)NCCS(=O)(=O)O)[C@H]1CC[C@H]2[C@@H]3[C@@H](O)C[C@@H]4C[C@H](O)CC[C@]4(C)[C@H]3CC[C@]12C [Tauroursodeoxycholate (dihydrate)] 0, COc1cc2c(cc1OC)-c1c(C)c3ccc(OC)c(OC)c3c[n+]1CC2 [Dehydrocorydaline (chloride)] 0, Clc1ccc(C2(c3ccc(-c4cn[nH]c4)cc3)CCNCC2)cc1 0, CCCC(=O)Nc1ncnc2c1ncn2[C@@H]1O[C@@H]2COP(=O)(O)O[C@H]2[C@H]1OC(=O)CCC [Bucladesine (calcium)] 0, CCS(=O)(=O)N1CCN(c2ccc(Nc3ncc(C(N)=O)c(NC4CC4)n3)cc2)CC1 [Cerdulatinib] 0
